# From paper PMC2391170
# These are yes or no findings as the source states them, for the method shown. Some binding calls cover weakened binding; strength is not graded here.
# T1: AtCLPS3 (Arabidopsis) (UniProt Q9SR06)
# T1 sequence: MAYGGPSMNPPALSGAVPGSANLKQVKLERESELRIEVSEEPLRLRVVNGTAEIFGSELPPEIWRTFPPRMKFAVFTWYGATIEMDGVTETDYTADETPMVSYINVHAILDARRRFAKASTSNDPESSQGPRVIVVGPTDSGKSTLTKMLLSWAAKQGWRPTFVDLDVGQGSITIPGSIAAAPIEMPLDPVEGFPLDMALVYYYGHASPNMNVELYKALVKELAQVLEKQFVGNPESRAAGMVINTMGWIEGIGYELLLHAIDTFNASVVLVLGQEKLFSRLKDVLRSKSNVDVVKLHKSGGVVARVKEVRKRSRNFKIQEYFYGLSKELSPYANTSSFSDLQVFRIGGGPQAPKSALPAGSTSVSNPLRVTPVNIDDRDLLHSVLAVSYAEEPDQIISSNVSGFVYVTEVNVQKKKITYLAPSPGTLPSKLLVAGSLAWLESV
# T2: AtPAPS4 (Arabidopsis) (UniProt Q8VYW1)
# T2 sequence: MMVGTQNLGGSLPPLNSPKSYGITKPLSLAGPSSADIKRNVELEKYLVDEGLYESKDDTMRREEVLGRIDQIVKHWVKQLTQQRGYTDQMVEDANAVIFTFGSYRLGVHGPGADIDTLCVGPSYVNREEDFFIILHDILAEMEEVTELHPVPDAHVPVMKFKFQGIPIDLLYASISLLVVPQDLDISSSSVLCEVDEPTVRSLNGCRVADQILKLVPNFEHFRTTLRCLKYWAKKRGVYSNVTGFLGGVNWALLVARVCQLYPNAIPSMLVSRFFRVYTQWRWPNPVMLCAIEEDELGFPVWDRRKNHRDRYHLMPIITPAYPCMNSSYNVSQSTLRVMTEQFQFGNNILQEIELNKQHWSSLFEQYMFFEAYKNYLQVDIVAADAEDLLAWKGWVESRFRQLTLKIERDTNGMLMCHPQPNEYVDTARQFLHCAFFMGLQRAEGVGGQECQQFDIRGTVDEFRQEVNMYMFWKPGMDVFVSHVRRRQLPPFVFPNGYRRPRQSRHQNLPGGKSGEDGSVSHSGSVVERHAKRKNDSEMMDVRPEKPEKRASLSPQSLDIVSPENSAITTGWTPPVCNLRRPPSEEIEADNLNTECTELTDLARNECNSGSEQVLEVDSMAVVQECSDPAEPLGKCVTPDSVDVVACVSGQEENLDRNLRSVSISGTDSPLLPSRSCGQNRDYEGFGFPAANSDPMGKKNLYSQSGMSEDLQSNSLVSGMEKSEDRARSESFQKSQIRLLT
# T3: AtPCFS4 (Arabidopsis) (UniProt Q0WPF2)
# T3 sequence: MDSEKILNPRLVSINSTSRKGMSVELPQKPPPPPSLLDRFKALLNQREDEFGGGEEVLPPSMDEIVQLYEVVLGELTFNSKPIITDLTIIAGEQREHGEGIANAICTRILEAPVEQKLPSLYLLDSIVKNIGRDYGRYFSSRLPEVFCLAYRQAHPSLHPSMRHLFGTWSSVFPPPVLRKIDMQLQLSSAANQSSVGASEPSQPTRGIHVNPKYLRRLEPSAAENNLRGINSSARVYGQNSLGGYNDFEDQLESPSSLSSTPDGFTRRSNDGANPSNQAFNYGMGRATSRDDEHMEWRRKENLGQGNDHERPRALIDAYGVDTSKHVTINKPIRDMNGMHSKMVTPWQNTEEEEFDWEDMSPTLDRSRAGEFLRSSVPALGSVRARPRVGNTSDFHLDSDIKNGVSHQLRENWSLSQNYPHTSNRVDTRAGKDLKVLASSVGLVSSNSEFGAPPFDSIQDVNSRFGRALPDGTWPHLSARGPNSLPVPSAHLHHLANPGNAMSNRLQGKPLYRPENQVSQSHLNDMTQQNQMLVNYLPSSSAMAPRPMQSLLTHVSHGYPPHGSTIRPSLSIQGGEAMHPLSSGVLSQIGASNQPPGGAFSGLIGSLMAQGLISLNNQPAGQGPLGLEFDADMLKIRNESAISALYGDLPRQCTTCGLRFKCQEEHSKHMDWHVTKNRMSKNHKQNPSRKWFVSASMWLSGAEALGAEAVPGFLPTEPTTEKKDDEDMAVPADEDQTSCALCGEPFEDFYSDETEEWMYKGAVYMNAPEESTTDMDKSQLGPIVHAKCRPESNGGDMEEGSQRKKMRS
# B1: AtCFIS1 (protein, UniProt Q94AF0 1-222)
# chain: MGEEARALDMEEISDNTTRRNDVVHDLMVDLYPLSSYYFGSKEALRVKDEIISDRVIRLKSNYAAHGLRTCVEAVLLVELFKHPHVLLLQYRNSIFKLPGGRLRPGESDIEGLKRKLASKLSVNENVGVSGYEVGECIGMWWRPNFETLMYPFLPPNIKHPKECTKLFLVRLPVHQQFVVPKNFKLLAVPLCQLHENEKTYGPIMSQIPKLLSKFSFNMMEI
# B2: AtCFIS2 (protein, UniProt Q8GXS3 1-200)
# chain: MAMSQVVNTYPLSNYSFGTKEPKLEKDTSVADRLARMKINYMKEGMRTSVEGILLVQEHNHPHILLLQIGNTFCKLPGGRLKPGENEADGLKRKLTSKLGGNSAALVPDWTVGECVATWWRPNFETMMYPYCPPHITKPKECKRLYIVHLSEKEYFAVPKNLKLLAVPLFELYDNVQRYGPVISTIPQQLSRFHFNMISS
# Key:
# Test in all cases: two-hybrid; AD (pGAD-C(1)) and BD (pGBD-C(1)) fusions in yeast PJ69-4; dual transformants tested on media lacking leucine, tryptophan and adenine; positive if all tested colonies (4 to 10) grew; both combinations of clones tested whenever possible
# [1] = target: T1, AtCLPS3 (Arabidopsis)
# [2] = target: T2, AtPAPS4 (Arabidopsis)
# [3] = target: T3, AtPCFS4 (Arabidopsis)
Binder,binding [1],binding [2],binding [3]
B1,no binding,no binding,no binding
B2,no binding,binds,no binding
